In test [1] the target is Beclin1 (human (endogenous in HepG2)) (UniProt Q14457). Description: native gel or EMSA; native-PAGE of HepG2 lysate (30 ug protein/well) followed by Western blot with anti-HMGB1; cells treated with CP. On the technique in general: Mobility shift assays separate free from complexed probe on a gel.
Test [2] shares this target. Description: native gel or EMSA; native-PAGE of HepG2 lysate (30 ug protein/well) followed by Western blot with anti-HMGB1; cells treated with CP-ANI.
The target is the same in test [3]. Nature of the test: native gel or EMSA; native-PAGE of HepG2 lysate (30 ug protein/well) followed by Western blot with anti-HMGB1; cells treated with CP-Mh.

The chains behind the UniProt entries cited, without tags or fusion partners.
UniProt Q14457: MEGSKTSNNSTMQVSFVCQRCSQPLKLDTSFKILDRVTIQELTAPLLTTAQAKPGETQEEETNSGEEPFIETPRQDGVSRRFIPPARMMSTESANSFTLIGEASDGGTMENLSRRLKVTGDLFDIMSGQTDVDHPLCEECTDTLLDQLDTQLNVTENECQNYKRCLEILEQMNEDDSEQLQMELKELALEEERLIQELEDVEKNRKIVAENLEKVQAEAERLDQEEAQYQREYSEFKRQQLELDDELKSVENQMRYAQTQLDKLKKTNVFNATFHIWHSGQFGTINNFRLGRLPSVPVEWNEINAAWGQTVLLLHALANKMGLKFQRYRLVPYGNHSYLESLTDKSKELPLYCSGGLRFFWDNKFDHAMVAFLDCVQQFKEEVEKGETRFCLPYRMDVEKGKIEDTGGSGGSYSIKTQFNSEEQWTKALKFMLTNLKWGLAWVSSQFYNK
UniProt P09429: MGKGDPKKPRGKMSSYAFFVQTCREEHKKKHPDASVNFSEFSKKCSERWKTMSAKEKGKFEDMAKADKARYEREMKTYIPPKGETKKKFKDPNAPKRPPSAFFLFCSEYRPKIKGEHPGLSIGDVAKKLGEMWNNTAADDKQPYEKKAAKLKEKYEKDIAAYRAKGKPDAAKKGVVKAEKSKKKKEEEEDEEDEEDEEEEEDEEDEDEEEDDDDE

These are yes or no findings as the source states them, for the method shown. Some entries that bind do so weakly or less than the wild type.

Regarding HMGB1 (from UniProt P09429 1-215), the binding entry in test [1] is recorded as “binds”; in test [2], “no binding (condition: cells treated with CP-ANI)”; in test [3] it was “no binding (condition: cells treated with CP-Mh)”.

The values above are taken from article PMC7885522.
